Measured values published in the supplement of paper PMC6411743.
± gives the standard deviation of the averaged measurements. The list shows a part of the results.

Sequences of proteins named here, by UniProt entry; tags and fusion partners are left off. A change or cut given only in a name is not applied to a line headed by its entry.
UniProt Q08211, whole entry: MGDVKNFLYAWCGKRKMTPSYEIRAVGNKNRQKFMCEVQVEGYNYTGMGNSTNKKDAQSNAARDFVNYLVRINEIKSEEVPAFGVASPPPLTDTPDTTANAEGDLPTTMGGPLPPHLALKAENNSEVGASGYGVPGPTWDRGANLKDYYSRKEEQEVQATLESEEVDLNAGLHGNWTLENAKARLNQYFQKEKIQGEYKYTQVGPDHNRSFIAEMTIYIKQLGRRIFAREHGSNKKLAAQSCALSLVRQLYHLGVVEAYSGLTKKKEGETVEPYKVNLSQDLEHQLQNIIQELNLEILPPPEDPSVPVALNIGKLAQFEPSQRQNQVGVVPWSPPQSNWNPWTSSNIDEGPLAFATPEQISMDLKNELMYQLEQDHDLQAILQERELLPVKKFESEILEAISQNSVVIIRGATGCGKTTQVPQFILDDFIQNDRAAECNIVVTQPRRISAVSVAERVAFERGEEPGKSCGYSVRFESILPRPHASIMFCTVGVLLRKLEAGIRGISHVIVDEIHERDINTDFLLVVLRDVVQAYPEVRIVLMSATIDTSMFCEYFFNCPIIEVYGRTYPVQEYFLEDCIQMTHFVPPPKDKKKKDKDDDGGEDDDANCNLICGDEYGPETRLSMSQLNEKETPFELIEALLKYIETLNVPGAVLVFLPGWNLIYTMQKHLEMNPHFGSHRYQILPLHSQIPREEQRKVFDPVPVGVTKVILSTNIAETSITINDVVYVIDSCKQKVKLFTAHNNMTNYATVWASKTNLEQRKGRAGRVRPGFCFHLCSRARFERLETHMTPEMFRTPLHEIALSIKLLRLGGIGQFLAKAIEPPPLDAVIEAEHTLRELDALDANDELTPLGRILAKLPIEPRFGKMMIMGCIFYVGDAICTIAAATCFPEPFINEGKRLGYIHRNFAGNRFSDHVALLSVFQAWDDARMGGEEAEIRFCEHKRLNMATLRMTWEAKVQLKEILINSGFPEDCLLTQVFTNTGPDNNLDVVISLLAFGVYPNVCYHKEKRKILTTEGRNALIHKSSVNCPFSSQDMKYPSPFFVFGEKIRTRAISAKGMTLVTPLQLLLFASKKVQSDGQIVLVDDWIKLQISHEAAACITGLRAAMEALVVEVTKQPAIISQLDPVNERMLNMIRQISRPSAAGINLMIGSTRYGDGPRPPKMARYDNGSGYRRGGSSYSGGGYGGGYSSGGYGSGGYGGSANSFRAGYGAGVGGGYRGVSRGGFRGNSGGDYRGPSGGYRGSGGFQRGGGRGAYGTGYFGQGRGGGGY
UniProt Q00688: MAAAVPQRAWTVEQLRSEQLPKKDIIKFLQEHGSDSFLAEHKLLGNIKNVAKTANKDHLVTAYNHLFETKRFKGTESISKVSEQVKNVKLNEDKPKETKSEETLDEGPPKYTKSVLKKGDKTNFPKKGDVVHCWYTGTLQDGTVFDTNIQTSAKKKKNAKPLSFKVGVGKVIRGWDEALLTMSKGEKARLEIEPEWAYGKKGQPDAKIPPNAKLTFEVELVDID
UniProt Q12802: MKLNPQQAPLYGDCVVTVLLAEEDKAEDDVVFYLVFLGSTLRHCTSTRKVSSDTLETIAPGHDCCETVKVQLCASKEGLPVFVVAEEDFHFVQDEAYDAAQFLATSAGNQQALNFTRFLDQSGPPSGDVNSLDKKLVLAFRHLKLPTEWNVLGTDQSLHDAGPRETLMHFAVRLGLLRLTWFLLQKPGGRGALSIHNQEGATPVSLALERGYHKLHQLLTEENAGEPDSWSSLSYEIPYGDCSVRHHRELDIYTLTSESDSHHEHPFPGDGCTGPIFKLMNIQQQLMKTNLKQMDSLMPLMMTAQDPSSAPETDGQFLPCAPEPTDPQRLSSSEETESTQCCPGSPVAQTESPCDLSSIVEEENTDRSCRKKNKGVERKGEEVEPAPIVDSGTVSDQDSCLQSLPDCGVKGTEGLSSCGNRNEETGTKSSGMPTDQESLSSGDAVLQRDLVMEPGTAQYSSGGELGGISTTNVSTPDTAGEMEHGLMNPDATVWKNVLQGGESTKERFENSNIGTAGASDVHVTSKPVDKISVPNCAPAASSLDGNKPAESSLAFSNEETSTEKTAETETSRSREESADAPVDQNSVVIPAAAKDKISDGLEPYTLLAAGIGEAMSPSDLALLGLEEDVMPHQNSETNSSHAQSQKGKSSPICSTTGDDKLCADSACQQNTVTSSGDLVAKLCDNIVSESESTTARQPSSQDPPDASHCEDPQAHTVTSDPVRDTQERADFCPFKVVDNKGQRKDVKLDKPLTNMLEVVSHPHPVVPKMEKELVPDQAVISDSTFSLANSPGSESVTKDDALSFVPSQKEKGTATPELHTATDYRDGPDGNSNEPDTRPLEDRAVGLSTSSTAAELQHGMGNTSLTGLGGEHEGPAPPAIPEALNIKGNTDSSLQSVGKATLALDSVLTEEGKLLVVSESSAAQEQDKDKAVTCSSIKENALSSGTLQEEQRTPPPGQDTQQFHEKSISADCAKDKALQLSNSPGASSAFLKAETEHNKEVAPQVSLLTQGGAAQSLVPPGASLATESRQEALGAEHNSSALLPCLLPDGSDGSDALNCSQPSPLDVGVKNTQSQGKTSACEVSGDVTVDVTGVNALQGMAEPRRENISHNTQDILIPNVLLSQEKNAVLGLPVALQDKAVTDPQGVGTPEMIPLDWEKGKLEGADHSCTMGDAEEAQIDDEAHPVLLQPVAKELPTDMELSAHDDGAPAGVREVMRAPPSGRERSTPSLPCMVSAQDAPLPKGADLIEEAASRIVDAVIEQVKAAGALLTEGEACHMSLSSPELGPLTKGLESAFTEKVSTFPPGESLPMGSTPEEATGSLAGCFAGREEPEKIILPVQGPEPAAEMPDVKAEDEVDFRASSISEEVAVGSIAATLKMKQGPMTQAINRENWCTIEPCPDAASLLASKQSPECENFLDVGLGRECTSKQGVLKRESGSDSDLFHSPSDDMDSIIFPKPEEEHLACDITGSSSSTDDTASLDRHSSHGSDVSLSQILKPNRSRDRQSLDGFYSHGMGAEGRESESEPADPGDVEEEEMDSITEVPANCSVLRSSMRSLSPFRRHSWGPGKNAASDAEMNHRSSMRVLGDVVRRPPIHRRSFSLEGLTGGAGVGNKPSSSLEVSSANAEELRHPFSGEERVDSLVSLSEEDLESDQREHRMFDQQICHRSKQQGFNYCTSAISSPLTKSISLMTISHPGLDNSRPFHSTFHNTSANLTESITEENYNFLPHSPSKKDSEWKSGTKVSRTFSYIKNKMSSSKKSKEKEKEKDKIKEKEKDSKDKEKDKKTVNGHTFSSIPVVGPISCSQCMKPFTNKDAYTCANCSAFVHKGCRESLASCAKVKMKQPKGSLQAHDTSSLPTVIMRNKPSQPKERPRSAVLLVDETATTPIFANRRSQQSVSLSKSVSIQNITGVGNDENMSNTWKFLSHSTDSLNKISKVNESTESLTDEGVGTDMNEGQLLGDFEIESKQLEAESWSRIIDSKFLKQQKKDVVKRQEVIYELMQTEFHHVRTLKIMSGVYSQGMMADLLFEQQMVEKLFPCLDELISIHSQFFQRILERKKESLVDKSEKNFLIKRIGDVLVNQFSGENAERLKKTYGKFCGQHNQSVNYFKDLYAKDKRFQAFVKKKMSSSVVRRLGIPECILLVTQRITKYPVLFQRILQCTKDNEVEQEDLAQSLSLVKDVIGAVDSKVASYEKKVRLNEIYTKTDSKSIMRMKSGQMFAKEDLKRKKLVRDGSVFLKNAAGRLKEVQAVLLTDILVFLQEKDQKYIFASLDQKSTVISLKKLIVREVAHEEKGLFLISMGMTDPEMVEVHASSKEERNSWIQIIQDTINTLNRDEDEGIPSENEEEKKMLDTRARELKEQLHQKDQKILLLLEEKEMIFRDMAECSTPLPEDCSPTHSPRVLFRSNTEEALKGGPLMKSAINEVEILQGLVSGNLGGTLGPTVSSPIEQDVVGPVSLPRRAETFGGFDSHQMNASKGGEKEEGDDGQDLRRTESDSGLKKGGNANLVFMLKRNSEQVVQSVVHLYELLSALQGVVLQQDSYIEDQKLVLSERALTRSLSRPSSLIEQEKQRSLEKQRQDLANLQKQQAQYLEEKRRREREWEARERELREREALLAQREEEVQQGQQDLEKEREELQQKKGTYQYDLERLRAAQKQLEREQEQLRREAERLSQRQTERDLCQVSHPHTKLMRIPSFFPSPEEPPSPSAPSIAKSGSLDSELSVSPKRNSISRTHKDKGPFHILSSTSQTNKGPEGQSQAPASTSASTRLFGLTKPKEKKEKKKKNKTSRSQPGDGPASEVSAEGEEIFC

Compound: Nc1nc2c(ncn2[C@@H]2O[C@H](COP(=O)(O)OP(=O)(O)OP(=O)(O)O)[C@@H](O)[C@H]2O)c(=O)[nH]1 [guanosine triphosphate]
Assay: NP40-soluble protein abundance relative to vehicle (solubility fold change) (ratio); higher = more soluble protein in presence of GTP
Procedure: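 Solubility proteome profiling in Jurkat crude lysate. Lysate was treated with Mg-GTP (0.1-10 mM) for 10 min at room temperature and 3 min at 37 °C, then solubilised with 0.8% NP40 and benzonase, followed by ultracentrifugation. Proteins were quantified by TMT10 LC-MS/MS; the value is the NP40-soluble abundance relative to the NP40-processed vehicle, from 3 independent experiments.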

Target	NP40-soluble protein abundance (concentration: 0.1mM)	NP40-soluble protein abundance (concentration: 0.5mM)	NP40-soluble protein abundance (concentration: 1mM)	NP40-soluble protein abundance (concentration: 2mM)	NP40-soluble protein abundance (concentration: 4mM)	NP40-soluble protein abundance (concentration: 6mM)	NP40-soluble protein abundance (concentration: 8mM)	NP40-soluble protein abundance (concentration: 10mM)
DHX9 (UniProt Q08211)	1.03 ± 0.088	1.13 ± 0.16	1.06 ± 0.17	1.2 ± 0.26	1.32 ± 0.28	1.49 ± 0.37	1.52 ± 0.3	1.64 ± 0.33
UniProt Q13439-5	0.971 ± 0.054	0.96 ± 0.069	0.99 ± 0.072	0.958 ± 0.1	0.954 ± 0.072	0.946 ± 0.074	0.995 ± 0.046	0.975 ± 0.072
FKBP3 (UniProt Q00688)	0.911 ± 0.048	0.906 ± 0.066	0.943 ± 0.073	0.906 ± 0.081	0.902 ± 0.081	0.905 ± 0.082	0.925 ± 0.077	0.943 ± 0.09
UniProt Q02750	0.899 ± 0.071	0.955 ± 0.051	0.89 ± 0.051	0.857 ± 0.053	0.834 ± 0.05	0.856 ± 0.056	0.834 ± 0.071	0.847 ± 0.061
UniProt Q12802 and related entries	0.99 ± 0.12	1.01 ± 0.092	1.01 ± 0.099	1 ± 0.12	0.977 ± 0.11	1.04 ± 0.11	1.02 ± 0.1	1.02 ± 0.084
